Data as given in PubChem BioAssay AID504834 (National Center for Advancing Translational Sciences (NCATS), 2011).
In all, about 320,000 compounds went through this assay and about 22,000 (6.9%) were called active. The inconclusive results got no clear call from the source; some entries with a clear call stand among them for comparison. The call rests on the fitted dose curve; in most records, active means well fitted inhibition curve with a large enough effect; inconclusive means small, poorly fitted or top-dose-only effect, or another doubt; inactive means no such curve, though single readings can be large or run the other way. Potencies of inconclusive entries are doubtful fits and often do not repeat.

assay: Primary qHTS for delayed death inhibitors of the malarial parasite plastid, 96 hour incubation; details: P. falciparum luciferase reporter growth; series mostly up to 28.7 µM; activity change, negative = inhibition: at the top concentration
Outline: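 Plates of compound plus infected erythrocytes (2% hematocrit, 0.05% parasitemia final) incubate 96 hours, 37 C, 5% CO2. Detection reagent added; reduced luminescence from the parasites' luciferase reporter flags inhibition.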
On the % scale 0 is the no-effect control and ±100 the full control effect; potency means the concentration at half of the fitted maximal effect.

For `Cc1nonc1OCCn1nnnc1N`, which Potency is on record?
Its Potency is inconclusive: 10.4 µM [inhibitor, partial curve].

With `CN1C(=O)CSC1=NC12CC3CC(CC(C3)C1)C2` as the molecule, how does the Potency read?
Its Potency is inconclusive: 0.465 µM [inhibitor, full curve, poor fit].

For `CCCCn1c(=N)n(CC(=O)c2ccc([N+](=O)[O-])cc2)c2ccccc21`, which “activity change, negative = inhibition” value is on record?
The value was inactive: 15%.

Which Potency does the source give for `COc1ccccc1NC(=O)N[C@@H](Cc1c[nH]c2ccccc12)C(=O)NN` here?
The Potency was inconclusive: 18.5 µM [inhibitor, single point].

Which Potency does the source give for `COc1ccc(-c2nn(Cc3ccccc3)cc2C(=O)NC2CC2)cc1OC` here?
The Potency was inconclusive: 11.7 µM [inhibitor, single point].

Which Potency does the source give for `O=C(NCCc1cccnc1)c1cc(COc2ccc(F)cc2Cl)on1` here?
The Potency was inconclusive: 1.31 µM [inhibitor, partial curve, poor fit].

With `Cc1nn(CC(=O)NC(=O)NC2CCCC(C)C2C)c(=O)c(C#N)c1C` (centres undefined) as the molecule, how does the “activity change, negative = inhibition” value read?
Its value is inactive: 2.28%.

Which Potency does the source give for `C=C1CC[C@H](O)C/C1=C/C=C1\CCC[C@]2(C)[C@@H]([C@H](C)CC[C@@H](O)C(C)(C)O)CC[C@@H]12` here?
The Potency was inconclusive: 9.53 µM [inhibitor, partial curve].

Which “activity change, negative = inhibition” value does the source give for `CC1=NN(C(C#N)c2ccccc2C)C(C)(C)C1` (centres undefined) here?
The value was inactive: -1.59%.

For `O=C(NCCC1CCCCN1S(=O)(=O)c1ccccc1)C(=O)NCc1ccccc1` (centres undefined), which Potency is on record?
The Potency was active: 16.5 µM.

With `CCS(=O)(=O)c1ccc2c(c1)NC(=O)C(CCO)O2` (centres undefined) as the molecule, how does the Potency read?
The Potency was inconclusive: 20.8 µM [inhibitor, single point].

Which Potency does the source give for `CCOC(=O)CSc1nnc(CNC(=O)c2cc(OCC)c(OCC)c(OCC)c2)n1C` here?
The Potency was inconclusive: 14.7 µM [inhibitor, single point].

Which “activity change, negative = inhibition” value does the source give for `O=C(Nc1cc(-c2nc3ccccc3s2)ccc1Cl)c1ccc2c(c1)OCO2` here?
The value was inactive: 36.4%.

With `O=C(Nc1cc(S(=O)(=O)N2CCCCCC2)ccc1OCC(F)(F)F)C1CCC1` as the molecule, how does the “activity change, negative = inhibition” value read?
The value was inactive: -15.5%.

With `C/C(=N/Oc1nc(C)cc(C)n1)c1ccc(Cl)cc1Cl` as the molecule, how does the “activity change, negative = inhibition” value read?
The value was inactive: -11.1%.

Which Potency does the source give for `O=C(Nc1ccc(F)cc1)C1CC2CCC1C2` (centres undefined) here?
Its Potency is inconclusive: 18.5 µM [inhibitor, single point].

With `CCCCCCc1cc2cc(C(N)=O)c(=N)oc2cc1O` as the molecule, how does the Potency read?
The Potency was inconclusive: 18.5 µM [inhibitor, single point].

With `Cc1ccccc1C1C(C#N)=C2N=C(N)c3c(sc4c3CCCCC4)N2C2=C1C(=O)CC(C)(C)C2` (centres undefined) as the molecule, how does the Potency read?
The Potency was inconclusive: 0.0029 µM [inhibitor, full curve, poor fit].

With `CC1=NN(c2ccc(C)cc2)C(=O)/C1=C\C=C\c1ccccc1` as the molecule, how does the Potency read?
Its Potency is inconclusive: 16.5 µM [inhibitor, single point].

Which Potency does the source give for `COc1ccc(-n2c3c(c(=O)[nH]c2=O)C(NS(=O)(=O)c2ccc(Cl)cc2)(C(F)(F)F)C(=O)N3)cc1` (centres undefined) here?
Its Potency is inconclusive: 6.57 µM [inhibitor, partial curve].

For `COc1ccc(Cl)cc1N(CC(=O)Nc1ccccc1C(=O)N1CCCC1)S(C)(=O)=O`, which Potency is on record?
Its Potency is inconclusive: 18.5 µM [inhibitor, single point].

With `COCC(CN1CCN(C2=NS(=O)(=O)c3ccccc32)CC1)OC(=O)c1ccc(OC)cc1` (centres undefined) as the molecule, how does the Potency read?
The Potency was inconclusive: 2.33 µM [inhibitor, partial curve].

For `CCOC(=O)c1c(NC(=O)c2ccccc2Br)sc2c1CCc1ccccc1-2`, which Potency is on record?
The Potency was inconclusive: 3.7 µM [inhibitor, full curve, poor fit].

With `Cc1cc(C)n(/N=C/c2cc([N+](=O)[O-])ccc2O)c(=O)c1` as the molecule, how does the Potency read?
Its Potency is inconclusive: 3.7 µM [inhibitor, single point].

For `O=C(COC(=O)Cc1cccc(C(F)(F)F)c1)Nc1ccccc1`, which “activity change, negative = inhibition” value is on record?
Its value is inactive: 6.17%.

For `C=CCN(c1ccccc1)S(=O)(=O)c1cccc(C(=O)NC2CCN(Cc3ccccc3)CC2)c1`, which Potency is on record?
The Potency was active: 11.7 µM.

Which Potency does the source give for `CNC(=O)CSc1nnc(-c2ccncc2)n1Cc1ccccc1` here?
Its Potency is inconclusive: 18.5 µM [inhibitor, single point].

With `CN1CCN(c2ccc(S(=O)(=O)N3CCCCC3)cc2[N+](=O)[O-])CC1` as the molecule, how does the Potency read?
Its Potency is inconclusive: 2.62 µM [inhibitor, partial curve, poor fit].

Which “activity change, negative = inhibition” value does the source give for `CCOc1ccc(N2C(=O)C3CCCN3C2=S)cc1` (centres undefined) here?
Its value is inactive: -39.2%.

Which Potency does the source give for `O=C1c2ccccc2C(O)(c2ncc[nH]2)N1C1CCCCC1` (centres undefined) here?
The Potency was inconclusive: 18.5 µM [inhibitor, single point].

With `COC(=O)c1ccc(NC(=O)CSc2nn3c(=O)c(C)nnc3s2)cc1` as the molecule, how does the Potency read?
Its Potency is inconclusive: 5.22 µM [inhibitor, partial curve, poor fit].

Which Potency does the source give for `CCCCOCC(O)CN1CCN(C(C)=O)CC1` (centres undefined) here?
The Potency was active: 8.28 µM.

Which Potency does the source give for `CCOC(=O)C1(C)NC(c2ccco2)C2C(=O)N(CC)C(=O)C21` (centres undefined) here?
Its Potency is active: 2.94 µM.

Which Potency does the source give for `O=C(COc1ccccc1[N+](=O)[O-])N/N=C/c1cccc(OC(=O)c2ccc3c(c2)OCO3)c1` here?
Its Potency is inconclusive: 5.22 µM [inhibitor, partial curve, poor fit].

With `O=C1CC2(CCN(C(=O)c3ccccc3Br)CC2)Oc2ccccc21` as the molecule, how does the Potency read?
The Potency was inconclusive: 18.5 µM [inhibitor, single point].

With `COc1ccc(/C=N/NC(=O)c2sc3nc(C)cc(C)c3c2N)cc1` as the molecule, how does the “activity change, negative = inhibition” value read?
The value was inactive: 21.3%.

Which Potency does the source give for `CCOC(=O)[C@H]1[C@H]2COc3ccc(Br)cc3[C@@H]2N2C(=O)c3cc(Br)ccc3NC(=O)[C@@]12C` here?
Its Potency is active: 8.28 µM.

Which Potency does the source give for `Cc1cccc(OCC(=O)NNc2c3ccccc3nc3ccccc23)c1` here?
Its Potency is active: 3.7 µM.

Which Potency does the source give for `CCOC(=O)CC(NC(C)=O)c1ccc([N+](=O)[O-])cc1` (centres undefined) here?
The Potency was inconclusive: 2.62 µM [inhibitor, single point].

Which Potency does the source give for `CN(C(=O)Cc1c[nH]c2ccccc12)C(C(=O)Nc1ccc2c(c1)OCO2)c1ccccc1` (centres undefined) here?
The Potency was inconclusive: 9.28 µM [inhibitor, partial curve].

For `Cc1csc(SCC(=O)NC(C)c2ccccc2)n1` (centres undefined), which Potency is on record?
Its Potency is inconclusive: 9.28 µM [inhibitor, single point].

Which “activity change, negative = inhibition” value does the source give for `O=C(NCCN1CCOCC1)c1ccc(NC(=O)C2COc3ccccc3O2)cc1` (centres undefined) here?
The value was inactive: 65.7%.

With `Oc1c(CN2CCN(c3ccccc3)CC2)cc(Br)c2cccnc12` as the molecule, how does the Potency read?
The Potency was inconclusive: 0.37 µM [inhibitor, full curve].

Which Potency does the source give for `Cn1cccc1Cc1nnc(SCC(=O)Nc2ccc(F)cc2)n1CCc1ccccc1` here?
The Potency was inconclusive: 16.5 µM [inhibitor, single point].
